Experimental data as given in PMC7199855, “GRAF2, WDR44, and MICAL1 mediate Rab8/10/11–dependent export of E-cadherin, MMP14, and CFTR ΔF508” (The Journal of Cell Biology, 2020).
No constants are given. Whether binding was seen depends on the method and setting. In cells and extracts the contact can be indirect. Some entries that bind do so weakly or less than the wild type. Where a sequence is shown, tags or fusion partners need not be part of it.

Protein sequences, listed by entry. Tags and fused reporters are not part of them.
UniProt Q8N3F8: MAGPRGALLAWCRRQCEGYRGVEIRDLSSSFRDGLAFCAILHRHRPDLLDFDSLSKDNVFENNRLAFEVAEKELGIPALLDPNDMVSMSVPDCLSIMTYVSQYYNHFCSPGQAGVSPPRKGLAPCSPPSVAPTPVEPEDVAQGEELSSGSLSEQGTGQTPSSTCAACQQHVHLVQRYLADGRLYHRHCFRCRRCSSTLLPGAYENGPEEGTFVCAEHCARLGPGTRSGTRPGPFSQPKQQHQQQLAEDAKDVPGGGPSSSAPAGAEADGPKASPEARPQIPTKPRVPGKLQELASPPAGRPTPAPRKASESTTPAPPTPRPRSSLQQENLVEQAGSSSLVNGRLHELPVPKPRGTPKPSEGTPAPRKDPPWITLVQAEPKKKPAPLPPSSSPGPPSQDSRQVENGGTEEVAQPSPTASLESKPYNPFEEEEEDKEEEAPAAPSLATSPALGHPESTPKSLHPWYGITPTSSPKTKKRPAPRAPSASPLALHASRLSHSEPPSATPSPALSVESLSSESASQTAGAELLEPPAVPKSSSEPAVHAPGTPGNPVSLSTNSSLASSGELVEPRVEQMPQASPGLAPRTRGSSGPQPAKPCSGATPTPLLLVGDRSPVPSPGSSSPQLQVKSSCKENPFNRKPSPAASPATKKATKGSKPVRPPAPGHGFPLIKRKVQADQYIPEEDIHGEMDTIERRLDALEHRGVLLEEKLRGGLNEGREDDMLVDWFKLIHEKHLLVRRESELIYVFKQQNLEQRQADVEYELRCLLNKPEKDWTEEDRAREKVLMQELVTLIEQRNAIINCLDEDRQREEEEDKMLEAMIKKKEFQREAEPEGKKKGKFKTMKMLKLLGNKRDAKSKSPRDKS
UniProt Q8IY33: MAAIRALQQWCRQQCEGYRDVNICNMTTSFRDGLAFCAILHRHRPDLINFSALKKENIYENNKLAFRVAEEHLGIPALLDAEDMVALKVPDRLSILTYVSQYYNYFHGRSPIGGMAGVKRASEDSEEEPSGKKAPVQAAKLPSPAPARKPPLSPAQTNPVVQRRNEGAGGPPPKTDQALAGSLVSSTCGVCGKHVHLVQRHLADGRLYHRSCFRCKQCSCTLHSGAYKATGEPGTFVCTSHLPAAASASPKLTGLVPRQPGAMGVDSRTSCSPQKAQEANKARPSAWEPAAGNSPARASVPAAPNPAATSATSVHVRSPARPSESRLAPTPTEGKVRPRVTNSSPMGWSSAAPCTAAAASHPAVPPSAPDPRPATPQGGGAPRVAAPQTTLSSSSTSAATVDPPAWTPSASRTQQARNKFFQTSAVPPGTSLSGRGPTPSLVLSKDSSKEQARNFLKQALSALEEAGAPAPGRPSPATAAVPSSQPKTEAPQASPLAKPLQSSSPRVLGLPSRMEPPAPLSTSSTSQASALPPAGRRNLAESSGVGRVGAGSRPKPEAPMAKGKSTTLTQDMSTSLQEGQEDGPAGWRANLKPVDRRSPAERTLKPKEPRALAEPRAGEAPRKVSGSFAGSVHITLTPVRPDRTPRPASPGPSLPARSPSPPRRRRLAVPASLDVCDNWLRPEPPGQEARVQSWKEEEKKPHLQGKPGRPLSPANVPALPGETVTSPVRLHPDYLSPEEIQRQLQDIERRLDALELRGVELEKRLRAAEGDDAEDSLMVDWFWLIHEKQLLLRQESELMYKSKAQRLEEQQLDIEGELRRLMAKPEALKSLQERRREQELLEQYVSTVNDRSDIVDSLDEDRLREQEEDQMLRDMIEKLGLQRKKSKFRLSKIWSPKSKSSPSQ

T1: GFP-MICAL1 (human) (UniProt Q8TDZ2)
T1 sequence: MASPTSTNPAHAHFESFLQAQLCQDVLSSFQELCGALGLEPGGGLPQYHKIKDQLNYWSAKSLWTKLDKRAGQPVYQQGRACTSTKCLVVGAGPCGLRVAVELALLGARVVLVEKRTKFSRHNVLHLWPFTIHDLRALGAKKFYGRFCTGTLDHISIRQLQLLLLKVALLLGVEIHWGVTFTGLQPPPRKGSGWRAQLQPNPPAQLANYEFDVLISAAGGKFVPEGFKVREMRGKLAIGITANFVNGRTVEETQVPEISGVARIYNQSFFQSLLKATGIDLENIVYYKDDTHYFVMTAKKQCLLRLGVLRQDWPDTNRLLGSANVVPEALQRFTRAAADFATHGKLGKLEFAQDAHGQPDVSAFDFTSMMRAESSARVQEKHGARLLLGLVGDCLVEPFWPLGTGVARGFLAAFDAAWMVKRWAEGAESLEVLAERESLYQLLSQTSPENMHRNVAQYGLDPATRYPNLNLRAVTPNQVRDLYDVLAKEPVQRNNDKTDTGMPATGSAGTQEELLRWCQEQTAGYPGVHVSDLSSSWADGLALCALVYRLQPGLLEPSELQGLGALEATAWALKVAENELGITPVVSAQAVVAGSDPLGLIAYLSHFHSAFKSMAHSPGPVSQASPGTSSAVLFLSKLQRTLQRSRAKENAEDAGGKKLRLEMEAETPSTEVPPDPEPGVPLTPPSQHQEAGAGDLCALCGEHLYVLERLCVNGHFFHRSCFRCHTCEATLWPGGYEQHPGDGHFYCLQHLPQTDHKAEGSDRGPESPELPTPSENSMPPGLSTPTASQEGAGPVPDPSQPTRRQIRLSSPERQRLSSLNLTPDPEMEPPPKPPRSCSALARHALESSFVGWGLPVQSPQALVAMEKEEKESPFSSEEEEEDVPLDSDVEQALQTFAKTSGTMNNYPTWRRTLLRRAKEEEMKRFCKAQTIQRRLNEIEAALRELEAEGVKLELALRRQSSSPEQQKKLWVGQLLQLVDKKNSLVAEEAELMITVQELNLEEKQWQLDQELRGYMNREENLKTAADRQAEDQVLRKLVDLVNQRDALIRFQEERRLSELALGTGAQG

T2: GFP-WDR44 (human) (UniProt Q5JSH3)
T2 sequence: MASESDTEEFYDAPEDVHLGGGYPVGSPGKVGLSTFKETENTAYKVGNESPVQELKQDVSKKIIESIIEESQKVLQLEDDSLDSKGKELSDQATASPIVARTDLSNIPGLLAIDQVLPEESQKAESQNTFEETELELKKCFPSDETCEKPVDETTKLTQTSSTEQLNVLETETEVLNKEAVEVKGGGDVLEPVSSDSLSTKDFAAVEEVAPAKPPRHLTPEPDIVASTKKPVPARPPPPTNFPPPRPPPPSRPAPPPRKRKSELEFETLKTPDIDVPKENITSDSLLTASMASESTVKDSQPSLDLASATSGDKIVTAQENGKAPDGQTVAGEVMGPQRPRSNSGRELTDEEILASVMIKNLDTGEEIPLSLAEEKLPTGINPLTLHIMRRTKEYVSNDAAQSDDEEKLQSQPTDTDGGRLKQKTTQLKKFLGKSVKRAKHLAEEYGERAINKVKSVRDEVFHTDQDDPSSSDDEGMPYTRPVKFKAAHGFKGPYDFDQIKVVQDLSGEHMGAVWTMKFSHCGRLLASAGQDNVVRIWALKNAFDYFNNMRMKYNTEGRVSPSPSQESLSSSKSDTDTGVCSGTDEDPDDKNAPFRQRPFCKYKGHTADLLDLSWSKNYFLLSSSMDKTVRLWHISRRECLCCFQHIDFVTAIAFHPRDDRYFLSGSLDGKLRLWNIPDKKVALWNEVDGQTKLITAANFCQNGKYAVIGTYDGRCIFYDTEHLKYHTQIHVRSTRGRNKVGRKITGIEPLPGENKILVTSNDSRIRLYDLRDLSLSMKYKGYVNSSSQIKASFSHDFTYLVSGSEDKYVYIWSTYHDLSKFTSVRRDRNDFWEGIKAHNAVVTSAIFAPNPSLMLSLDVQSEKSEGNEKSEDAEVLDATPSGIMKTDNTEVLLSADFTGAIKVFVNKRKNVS

T3: myc-MICAL1 (human) (UniProt Q8TDZ2)
T3 sequence: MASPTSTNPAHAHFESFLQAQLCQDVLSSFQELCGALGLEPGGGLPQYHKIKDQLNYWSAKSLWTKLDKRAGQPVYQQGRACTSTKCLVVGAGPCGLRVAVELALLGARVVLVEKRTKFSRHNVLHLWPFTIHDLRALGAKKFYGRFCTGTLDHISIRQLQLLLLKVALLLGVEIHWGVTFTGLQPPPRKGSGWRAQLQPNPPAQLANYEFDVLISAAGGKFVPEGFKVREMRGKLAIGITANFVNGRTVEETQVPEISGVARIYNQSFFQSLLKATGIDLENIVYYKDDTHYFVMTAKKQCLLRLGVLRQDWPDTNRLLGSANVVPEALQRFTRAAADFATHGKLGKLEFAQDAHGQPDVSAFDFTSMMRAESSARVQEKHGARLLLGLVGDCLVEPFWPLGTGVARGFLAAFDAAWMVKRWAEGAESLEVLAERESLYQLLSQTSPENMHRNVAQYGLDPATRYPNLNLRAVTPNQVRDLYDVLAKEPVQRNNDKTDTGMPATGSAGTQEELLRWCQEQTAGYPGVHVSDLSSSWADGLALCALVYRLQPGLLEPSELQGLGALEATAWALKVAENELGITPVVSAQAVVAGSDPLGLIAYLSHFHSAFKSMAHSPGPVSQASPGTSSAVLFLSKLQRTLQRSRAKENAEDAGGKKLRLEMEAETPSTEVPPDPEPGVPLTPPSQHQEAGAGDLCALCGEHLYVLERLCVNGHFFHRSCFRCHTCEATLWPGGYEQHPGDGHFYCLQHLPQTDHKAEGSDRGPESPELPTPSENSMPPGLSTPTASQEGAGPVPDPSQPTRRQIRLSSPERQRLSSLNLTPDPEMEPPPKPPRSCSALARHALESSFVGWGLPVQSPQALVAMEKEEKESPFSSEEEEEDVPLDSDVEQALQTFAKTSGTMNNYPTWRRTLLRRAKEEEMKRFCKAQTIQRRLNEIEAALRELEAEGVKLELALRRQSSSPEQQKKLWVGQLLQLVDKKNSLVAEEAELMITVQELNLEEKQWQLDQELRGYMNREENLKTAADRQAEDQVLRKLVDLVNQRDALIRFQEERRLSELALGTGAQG

T4: myc-MICAL1^Pro (human) (UniProt Q8TDZ2)
T4 sequence: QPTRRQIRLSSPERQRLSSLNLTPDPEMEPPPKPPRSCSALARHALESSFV

T5: myc-MICAL1^tail (human) (UniProt Q8TDZ2)
T5 sequence: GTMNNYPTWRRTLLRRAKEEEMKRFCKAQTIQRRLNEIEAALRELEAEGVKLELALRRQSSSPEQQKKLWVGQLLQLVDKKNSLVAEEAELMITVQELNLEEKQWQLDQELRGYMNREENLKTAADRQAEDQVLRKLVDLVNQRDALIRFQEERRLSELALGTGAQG

T6: myc–MICAL1 G3W (human) (UniProt Q8TDZ2)
T6 sequence: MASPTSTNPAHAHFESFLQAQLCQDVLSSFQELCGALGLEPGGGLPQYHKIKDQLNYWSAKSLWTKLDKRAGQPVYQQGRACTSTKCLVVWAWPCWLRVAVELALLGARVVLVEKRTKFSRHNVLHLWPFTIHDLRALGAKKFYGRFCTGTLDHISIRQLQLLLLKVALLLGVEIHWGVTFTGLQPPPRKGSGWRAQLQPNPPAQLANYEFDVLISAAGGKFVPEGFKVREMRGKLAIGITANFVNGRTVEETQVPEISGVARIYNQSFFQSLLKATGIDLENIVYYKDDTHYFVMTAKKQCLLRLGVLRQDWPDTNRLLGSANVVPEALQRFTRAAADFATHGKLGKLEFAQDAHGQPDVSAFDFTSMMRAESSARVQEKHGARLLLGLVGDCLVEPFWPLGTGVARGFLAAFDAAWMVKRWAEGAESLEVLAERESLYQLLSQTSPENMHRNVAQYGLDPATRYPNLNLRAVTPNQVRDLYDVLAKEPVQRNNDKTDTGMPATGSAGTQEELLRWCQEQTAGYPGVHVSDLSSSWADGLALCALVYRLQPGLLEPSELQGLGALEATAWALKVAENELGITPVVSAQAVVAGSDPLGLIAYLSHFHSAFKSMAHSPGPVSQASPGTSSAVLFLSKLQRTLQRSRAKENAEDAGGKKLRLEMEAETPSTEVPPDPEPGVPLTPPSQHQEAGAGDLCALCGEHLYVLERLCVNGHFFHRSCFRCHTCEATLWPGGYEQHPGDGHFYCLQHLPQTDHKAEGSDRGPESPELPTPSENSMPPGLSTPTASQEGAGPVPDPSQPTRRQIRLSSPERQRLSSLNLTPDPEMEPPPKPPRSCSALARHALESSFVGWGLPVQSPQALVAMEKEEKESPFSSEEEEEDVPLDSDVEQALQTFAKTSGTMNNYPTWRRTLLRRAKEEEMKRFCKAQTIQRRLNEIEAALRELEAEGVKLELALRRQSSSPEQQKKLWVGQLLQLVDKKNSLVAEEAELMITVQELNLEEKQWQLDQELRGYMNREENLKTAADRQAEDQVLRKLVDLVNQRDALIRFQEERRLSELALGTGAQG


Legend:
[1] = biological target: T1, GFP-MICAL1 (human); assay: co-IP; transfected 293T, IP with α-GFP and Protein G Sepharose; 20 mM Hepes pH 7.4, 150 mM NaCl, 2 mM EDTA, 1% IGEPAL CA-630; Western blot
[2] = biological target: T2, GFP-WDR44 (human); assay: as above
[3] = biological target: GFP–MICAL-L1 (human) (UniProt Q8N3F8); assay: as above
[4] = biological target: GFP–MICAL-L2 (human) (UniProt Q8IY33); assay: as above
[5] = biological target: T3, myc-MICAL1 (human); assay: co-IP; transfected 293T, IP with α-myc–coated magnetic beads; 20 mM Hepes pH 7.4, 150 mM NaCl, 2 mM EDTA, 1% IGEPAL CA-630; Western blot
[6] = biological target: T4, myc-MICAL1^Pro (human); assay: as above
[7] = biological target: T5, myc-MICAL1^tail (human); assay: as above
[8] = biological target: T3, myc-MICAL1 (human); assay: co-IP; transfected 293T, IP with α-myc antibody and Protein G Sepharose; 20 mM Hepes pH 7.4, 150 mM NaCl, 2 mM EDTA, 1% IGEPAL CA-630; Western blot
[9] = biological target: T6, myc–MICAL1 G3W (human); assay: as above

Row | binding [1] | binding [2] | binding [3] | binding [4] | binding [5] | binding [6] | binding [7] | binding [8] | binding [9] | Binder
1 | binds | binds | no binding | no binding |  |  |  |  |  | untagged GRAF2 (protein, UniProt A1A4S6 1-786) MGLQPLEFSDCYLDSPWFRERIRAHEAELERTNKFIKELIKDGKNLIAATKSLSVAQRKFAHSLRDFKFEFIGDAVTDDERCIDASLREFSNFLKNLEEQREIMALSVTETLIKPLEKFRKEQLGAVKEEKKKFDKETEKNYSLIDKHLNLSAKKKDSHLQEADIQVEQNRQHFYELSLEYVCKLQEIQERKKFEFVEPMLSFFQGMFTFYHQGHELAKDFNHYKMELQINIQNTRNRFEGTRSEVEELMNKIRQNPKDHKRASQFTAEGYLYVQEKRPAPFGSSWVKHYCMYRKAAKKFNMIPFEHRSGGKLGDGEVFFLKECTKRHTDSIDRRFCFDIEAADRPGVSLTMQAFSEEERKQWLEALGGKEALSHSFNTAIIPRPEGNAQLDKMGFTIIRKCISAVETRGINDQGLYRVVGVSSKVQRLLSMLMDVKTCNEVDLENSADWEVKTITSALKQYLRSLPEPLMTYELHGDFIVPAKSGSPESRVNAIHFLVHKLPEKNKEMLDILVKHLTNVSNHSKQNLMTVANLGVVFGPTLMRPQEETVAALMDLKFQNIVVEILIENHEKIFRTPPDTTFPEPTCLSASPPNAPPRQSKRQGQRTKRPVAVYNLCLELEDGDNPYPSKEDTPTSSLDSLSSPSPVTTAVPGPPGPDKNHLLADGGSFGDWASTIPGQTRSSMVQWLNPQSPTTTSSNSAVTPLSPGSSPFPFSPPATVADKPPESIRSRKARAVYPCEAEHSSELSFEIGAIFEDVQTSREPGWLEGTLNGKRGLIPQNYVKLL
2 |  |  |  |  | binds | binds | no binding | binds | binds | GRAF2-GFP (protein, UniProt A1A4S6 1-786) MGLQPLEFSDCYLDSPWFRERIRAHEAELERTNKFIKELIKDGKNLIAATKSLSVAQRKFAHSLRDFKFEFIGDAVTDDERCIDASLREFSNFLKNLEEQREIMALSVTETLIKPLEKFRKEQLGAVKEEKKKFDKETEKNYSLIDKHLNLSAKKKDSHLQEADIQVEQNRQHFYELSLEYVCKLQEIQERKKFEFVEPMLSFFQGMFTFYHQGHELAKDFNHYKMELQINIQNTRNRFEGTRSEVEELMNKIRQNPKDHKRASQFTAEGYLYVQEKRPAPFGSSWVKHYCMYRKAAKKFNMIPFEHRSGGKLGDGEVFFLKECTKRHTDSIDRRFCFDIEAADRPGVSLTMQAFSEEERKQWLEALGGKEALSHSFNTAIIPRPEGNAQLDKMGFTIIRKCISAVETRGINDQGLYRVVGVSSKVQRLLSMLMDVKTCNEVDLENSADWEVKTITSALKQYLRSLPEPLMTYELHGDFIVPAKSGSPESRVNAIHFLVHKLPEKNKEMLDILVKHLTNVSNHSKQNLMTVANLGVVFGPTLMRPQEETVAALMDLKFQNIVVEILIENHEKIFRTPPDTTFPEPTCLSASPPNAPPRQSKRQGQRTKRPVAVYNLCLELEDGDNPYPSKEDTPTSSLDSLSSPSPVTTAVPGPPGPDKNHLLADGGSFGDWASTIPGQTRSSMVQWLNPQSPTTTSSNSAVTPLSPGSSPFPFSPPATVADKPPESIRSRKARAVYPCEAEHSSELSFEIGAIFEDVQTSREPGWLEGTLNGKRGLIPQNYVKLL
